Experimental data as given in patent US12122775B1, “Substituted pyrido[4,3-e]pyrrolo[1,2-a]pyrazines as CK2 inhibitors” (KING FAISAL UNIVERSITY, priority 2024, dated 2024).

What was measured:
Format in all cases: cell-based
MCF7 (breast) = assay: In vitro cytotoxic activity MTT assay, MCF7; conditions: Homo sapiens; MCF7 (breast) cells, exposed for 96 hours; read-out: Cytotoxicity activity IC50 (50% inhibition of cell proliferation)
Experimental: (§1) Compounds 1-16 were screened for their in vitro cytotoxic activity utilizing a 3-(4,5-dimethyl-thiazol-2-yl)-2,5-diphenyltetrazolium bromide (MTT) assay against selected cancer human cell lines consisting of PC3 (prostate), HCT116 (colon), A375 (melanoma), H1299 (lung), MIAPaCa-2 (pancreas), HL60 (leukemia), MCF7 (breast), MDA-MB-231 (breast) (T. Mosmann, J. Immunol. Meth., 1983, 65, 55-63). The cells were cultured at 37° C. in RMPI1640 medium supplemented with 10% fetal bovine serum, 50 IU/mL penicillin, and 50 μg/mL streptomycin in a 5% CO2 incubator. All cells were sub-cultured 3 times/week by trypsinisation. Viable cells were seeded and allowed to adhere for 12 hours before a test drug was added in 96-well plates at an initial density of 1.0×10^5 cells/mL. Tumor cell lines were separately exposed to various concentrations of the tested compounds followed by incubation at a temperature of 37° C. during 96 hours inside a medium of fresh RMPI 1640. Cells were subsequently incubated at 37° C. using MTT at 0.5 mg/mL during 4 hours. After removal of supernatant, formazan crystals were dissolved in isopropanol and the optical density was measured at 570 nm. CX-4945 was used as a positive control.

HL60 (leukemia) = assay: In vitro cytotoxic activity MTT assay, HL60; conditions: Homo sapiens, HL-60; HL60 (leukemia) cells, exposed for 96 hours; read-out: Cytotoxicity activity IC50 (50% inhibition of cell proliferation)
Experimental: as §1

A375 (melanoma) = assay: In vitro cytotoxic activity MTT assay, A375; conditions: Homo sapiens, A-375; A375 (melanoma) cells, exposed for 96 hours; read-out: Cytotoxicity activity IC50 (50% inhibition of cell proliferation)
Experimental: as §1

MDA-MB-231 (breast) = assay: In vitro cytotoxic activity MTT assay, MDA-MB-231; conditions: Homo sapiens; MDA-MB-231 (breast) cells, exposed for 96 hours; read-out: Cytotoxicity activity IC50 (50% inhibition of cell proliferation)
Experimental: as §1

H1299 (lung) = assay: In vitro cytotoxic activity MTT assay, H1299; conditions: Homo sapiens, NCI-H1299; H1299 (lung) cells, exposed for 96 hours; read-out: Cytotoxicity activity IC50 (50% inhibition of cell proliferation)
Experimental: as §1

MIAPaCa-2 (pancreas) = assay: In vitro cytotoxic activity MTT assay, MIAPaCa-2; conditions: Homo sapiens, MIA PaCa-2; MIAPaCa-2 (pancreas) cells, exposed for 96 hours; read-out: Cytotoxicity activity IC50 (50% inhibition of cell proliferation)
Experimental: as §1

PC3 (prostate) = assay: In vitro cytotoxic activity MTT assay, PC3; conditions: Homo sapiens, Prostate cell; PC3 (prostate) cells, exposed for 96 hours; read-out: Cytotoxicity activity IC50 (50% inhibition of cell proliferation)
Experimental: as §1

HCT116 (colon) = assay: In vitro cytotoxic activity MTT assay, HCT116; conditions: Homo sapiens, HCT-116; HCT116 (colon) cells, exposed for 96 hours; read-out: Cytotoxicity activity IC50 (50% inhibition of cell proliferation)
Experimental: as §1

With O=C(O)c1ccc2c(c1)nc(Nc1cccc(Cl)c1)c1ccncc12 [CX-4945, Silmitasertib, reference compound] the IC50 (MCF7 (breast)) was 9100 nM, the IC50 (HL60 (leukemia)) was 3700 nM and the IC50 (A375 (melanoma)) was 4100 nM. The IC50 (MDA-MB-231 (breast)) was 6200 nM, the IC50 (H1299 (lung)) was 2300 nM and the IC50 (MIAPaCa-2 (pancreas)) was 1000 nM. The IC50 (PC3 (prostate)) was 2000 nM and the IC50 (HCT116 (colon)) was 2300 nM.
